Results are given in words; binding and its absence hold for the method and conditions named. In cells and extracts the contact can be indirect. Some binding calls cover weakened binding; strength is not graded here.

Amino acid sequences for entries named in this document (tags omitted).
UniProt Q9WV60: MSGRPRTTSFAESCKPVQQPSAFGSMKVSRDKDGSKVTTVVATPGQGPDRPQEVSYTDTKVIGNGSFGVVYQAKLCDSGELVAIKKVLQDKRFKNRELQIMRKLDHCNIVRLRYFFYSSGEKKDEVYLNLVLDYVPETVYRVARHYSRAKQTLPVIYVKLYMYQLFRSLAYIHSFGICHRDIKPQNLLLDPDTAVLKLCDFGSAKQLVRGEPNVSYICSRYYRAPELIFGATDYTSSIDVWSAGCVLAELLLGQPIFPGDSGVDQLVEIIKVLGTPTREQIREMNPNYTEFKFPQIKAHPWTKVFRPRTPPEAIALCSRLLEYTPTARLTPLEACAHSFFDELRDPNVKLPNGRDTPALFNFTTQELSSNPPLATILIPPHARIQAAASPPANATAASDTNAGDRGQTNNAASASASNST

The target in experiment [1] is Glycogen synthase kinase-3β (GSK3β) (mouse (endogenous in RAW264.7)) (UniProt Q9WV60). Nature of the experiment: co-IP; data not shown; extracts of RAW264.7 cells before RANKL or LiCl treatment; precipitated with anti-hnRNPK or with anti-GSK3β antibody, Western blot of the counterpart.
Experiment [2] shares this target. Nature of the experiment: co-IP; endogenous proteins in RAW264.7 whole cell lysate (150 mM Tris-HCl, 500 mM NaCl, 1% Triton X-100, pH 7.6), antibody at 4 °C overnight, protein A/G Sepharose; cells treated with RANKL for various durations (IP with anti-hnRNPK) or with 10 mM LiCl for 8 hours (IP with anti-GSK3β); non-immune IgG as control; Western blot.

As for “heterogeneous nuclear ribonucleoprotein K (hnRNPK) (from UniProt P61979 1-463)”, the binding entry in experiment [1] is recorded as “binds weakly”; in experiment [2], “binds”.

(Values after article PMC4671015.)
